These results are taken from PMC11135676.

Sequences of proteins named here, by UniProt entry; tags and fusion partners are left off. A change or cut given only in a name is not applied to a line headed by its entry. Residues count along the entry.
UniProt P08874, 3-96: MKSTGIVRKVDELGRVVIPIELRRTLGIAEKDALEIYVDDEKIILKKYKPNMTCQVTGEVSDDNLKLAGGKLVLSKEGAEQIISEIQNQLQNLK
UniProt P40762: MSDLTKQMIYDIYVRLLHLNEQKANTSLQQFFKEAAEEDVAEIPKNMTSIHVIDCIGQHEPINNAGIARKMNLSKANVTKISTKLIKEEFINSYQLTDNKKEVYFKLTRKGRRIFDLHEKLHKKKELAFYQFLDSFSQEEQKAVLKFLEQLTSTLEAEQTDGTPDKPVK
UniProt P11065: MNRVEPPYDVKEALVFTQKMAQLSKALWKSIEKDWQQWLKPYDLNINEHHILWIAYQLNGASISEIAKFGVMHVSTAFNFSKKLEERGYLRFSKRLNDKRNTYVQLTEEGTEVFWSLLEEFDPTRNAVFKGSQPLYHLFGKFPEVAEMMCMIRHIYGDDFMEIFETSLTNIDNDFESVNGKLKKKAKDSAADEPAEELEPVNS

For part of these data: No signal at the amounts used counts as a negative. For part of these data: For at least one entry, the source does not settle the construct or the ends of the probe. For part of these data: The comparison behind a weaker result is the experiment's own reference, which may not be listed here.

Experiment in all cases: EMSA
In general terms: Mobility shift assays separate free from complexed probe on a gel.

For one series, the target named is AbrB (UniProt P08874). The note with it: 500-1000 nM protein; deletion of 59 bp, -14 to +45 relative to TSS; 50 mM Tris pH 8, 1 mM EDTA, 30 mM KCl, 2 mM MgCl2, 2.5 mM DTT, 0.25% Tween 20, 0.5 mg/mL BSA (1X from 5X stock), 10 nM probe, 30 min at 37 C; recombinant protein; residues 3-96; protein details: SUMO-His tag removed by Ulp1; label: 5' IRDye 700; probe letters rebuilt from the primers and the genome; part of a longer molecule.

The target in another series is PchR (YvmB) (UniProt P40762). The following applies: 125-250 nM protein, only faint non-specific shift at highest concentration; deletion of 59 bp, -14 to +45 relative to TSS; 50 mM Tris pH 8, 1 mM EDTA, 30 mM KCl, 2 mM MgCl2, 2.5 mM DTT, 0.25% Tween 20, 0.5 mg/mL BSA (1X from 5X stock), 10 nM probe, 30 min at 37 C; recombinant protein; residues 1-169; protein details: SUMO-His tag removed by Ulp1; label: 5' IRDye 700; probe letters rebuilt from the primers and the genome; part of a longer molecule.

In the next series the target is ScoC (UniProt P11065). The note with it: 250-1000 nM protein, band only at 1000 nM (non-specific), none at 250 or 500 nM; deletion of 59 bp, -14 to +45 relative to TSS; 50 mM Tris pH 8, 1 mM EDTA, 30 mM KCl, 2 mM MgCl2, 2.5 mM DTT, 0.25% Tween 20, 0.5 mg/mL BSA (1X from 5X stock), 10 nM probe, 30 min at 37 C; recombinant protein; protein details: SUMO-His tag removed by Ulp1; label: 5' IRDye 700; probe letters rebuilt from the primers and the genome; part of a longer molecule.

On to “TCCGGTCATCTCATTCACCCCTAAAACTTATCCCGCTTTAAGTCATCACCCTCAAATACAAGATGGAATAGCTAGAACAACTGAACAAGACGAATGGCAGGCATCACTTAAAGTTTCCAAATGTTTTTTAAGATTTTAATAATCATTTTCA (double strand) [PyvmC delta59 EMSA probe]”, for which the binding result with AbrB is recorded as “no binding”; with PchR (YvmB), “binds more weakly”; with ScoC, “binds more weakly”.
